# In PubChem BioAssay AID540276 (National Center for Advancing Translational Sciences (NCATS), 2011):
# Among all 300,000 compounds or so, about 5,400 (1.8%) were called active. The shares of active, inactive and inconclusive entries below differ from those in the screen. The call rests on the fitted dose curve; tested in HEK293 cells. A potency beside an inconclusive call is a rough fit, not a confirmed value.
# Assay: qHTS for inhibitors of binding or entry into cells for Marburg Virus
# Details: Marburg virus pseudotyped entry inhibition, cell reporter; activity change, negative = inhibition: at 37.8 µM (top of the series) unless noted
# On the % scale 0 is the no-effect control and ±100 the full control effect; potency means the concentration at half of the fitted maximal effect.
Compound,Potency,"activity change, negative = inhibition"
COC(=O)c1ccc(C)c(NC(=O)c2ccc(Cl)c([N+](=O)[O-])c2)c1,"inconclusive: 14.6 µM [inhibitor, single point]",–
CCOc1ccc(NC(=O)CCNS(=O)(=O)c2ccc3c(c2)c(=O)n(C)c(=O)n3C)cc1,inactive,–
CCn1cc(C(=O)NCc2cccnc2)c2cc(OC)c(OC)cc2c1=O,–,inactive: 7.93%
C=CCc1cc(Cl)ccc1OCCNCCCOC,"inconclusive: 35.5 µM [inhibitor, single point]",–
Cc1[nH][nH]c(=O)c1N=Nc1ccccc1,"inconclusive: 20.6 µM [activator, single point]",–
CCN(CC)S(=O)(=O)c1ccc(Cl)c(C(=O)NCC2CCCO2)c1 (centres undefined),–,inactive: 10.8%
Cc1cc(NC(=O)c2ccccc2[N+](=O)[O-])ccc1Br,"inconclusive: 3.98 µM [activator, single point]",–
CSc1ccc(NC(=O)NCCCN2CCN(c3ccccc3F)CC2)cc1,"inconclusive: 35.5 µM [inhibitor, single point]",–
CC1CCCCC1NC(=O)CN1CCC(O)(c2ccc3c(c2)OCO3)CC1 (centres undefined),"inconclusive: 0.708 µM [activator, single point]",–
CC1CCCN(c2nc(-c3ccccc3O)nc3ccccc23)C1 (centres undefined),"inconclusive: 0.631 µM [activator, full curve, poor fit]",–
CCCCNC(=O)c1cc2c(=O)n(CC)c3ccccc3c2s1,–,inactive: -10.6%
COc1ccc(CC(NC(C)=O)C(=O)NC2CCN(S(=O)(=O)c3cccc4ccccc34)CC2)cc1OC (centres undefined),–,inactive: 0.0733%
Cc1scc(C(=O)NNC(=S)NCC2CCCO2)c1-c1ccccc1 (centres undefined),"inconclusive: 0.0891 µM [activator, full curve, poor fit]",–
COC(=O)Cc1n[nH]c(=S)[nH]c1=O,–,inactive: 0.108%
CCOc1ccc(-c2nnc(SCC(=O)Oc3ccccc3)o2)cc1,"inconclusive: 14.1 µM [inhibitor, single point]",–
COc1ccc(O[C@H]2C=C[C@@H](c3ccccc3)O[C@H]2COC(=O)CC/C(C)=N/OCC[C@@H]2C=C[C@H](OC(C)=O)[C@H](COC(C)=O)O2)cc1,"inconclusive: 0.006 µM [activator, full curve, poor fit]",–
Cc1ccc(NC(=O)C(Cc2ccccc2)NC(=O)c2ccco2)cc1 (centres undefined),–,inactive: -6.41%
CC(C)c1ccc(-c2nc3c([nH]2)c(=O)n(C)c(=O)n3C)cc1,"inconclusive: 35.5 µM [activator, single point]",–
O=C(O)c1ccccc1NS(=O)(=O)c1ccc(N/N=C/c2ccc(O)c(O)c2)c([N+](=O)[O-])c1,"inconclusive: 10 µM [activator, partial curve, poor fit]",–
Cc1cccc(NC(=S)NC(=O)c2cccs2)n1,"inconclusive: 2.59 µM [activator, full curve]",–
CC12CC(=O)C3C(CCC4=CC(=O)CCC43C)C1CC=C2CC(=O)O (centres undefined),"inconclusive: 12.6 µM [activator, single point]",–
O=C(Nc1cccc(O)c1)C(=O)Nc1ccccn1,"inconclusive: 35.5 µM [inhibitor, partial curve, poor fit]",–

# One compound at a time, as listed above:
# CSc1ccc(NC(=O)NCCCN2CCN(c3ccccc3F)CC2)cc1 as listed: Potency: inconclusive: 35.5 µM [inhibitor, single point]
# C=CCc1cc(Cl)ccc1OCCNCCCOC as listed: Potency: inconclusive: 35.5 µM [inhibitor, single point]

# The results go on:

Compound,Potency,"activity change, negative = inhibition"
O=C(CCCCCCCCC(=O)N1CCCCC1)N1CCCCC1,"inconclusive: 22.4 µM [inhibitor, partial curve, poor fit]",–
Cc1ccc(C(=O)N2CCN(c3ccc([N+](=O)[O-])c(NCc4ccco4)c3)CC2)cc1,"inconclusive: 10 µM [inhibitor, partial curve, poor fit]",–
COc1ccc(-c2ocnc2C(=O)Nc2ccccc2N2CCCCC2)cc1,"inconclusive: 10 µM [inhibitor, partial curve, poor fit]",–
O=C(O)c1ccccc1CSc1nc2ccccc2n1Cc1ccccc1C(=O)O,–,inactive: 12.8% [at 46.1 µM]
CC(C)C(=O)N1CCC(c2nc(-c3ccc(S(=O)(=O)N4CCCC4)cc3)no2)CC1,–,inactive: -25.2%
O=C(NCCOc1ccccc1Cl)C(=O)c1c[nH]c2ccccc12,–,inactive: 17.6%
Cc1cccc(NC(=O)CCc2nc3sc4c(c3c(=O)[nH]2)CCCC4)n1,"inconclusive: 2.51 µM [activator, partial curve]",–
CCN(CC)CCCOC(=O)C(OC)(c1ccccc1)c1ccccc1,"inconclusive: 18.3 µM [inhibitor, partial curve, poor fit]",–
O=C(NCCc1ccccc1)c1ccco1,"inconclusive: 2.82 µM [activator, partial curve]",–
C=CCn1c(SCC(=O)NCCOC)nnc1-c1cc2c(s1)CCC(CC)C2 (centres undefined),"inconclusive: 35.5 µM [inhibitor, single point]",–
CCOc1ccc2c(c1)c(=O)c(C(=O)c1ccc3c(c1)OCO3)cn2Cc1cccc(F)c1,"inconclusive: 11.2 µM [inhibitor, partial curve, poor fit]",–
CN(C)C(CNC(=O)c1cc(S(=O)(=O)N(C)c2ccc(F)cc2)ccc1Cl)c1ccco1 (centres undefined),–,inactive: -15.6%
CC(=O)c1c(C)[nH]c(C(=O)COc2cc(C)cc(C)c2)c1C,"inconclusive: 4.61 µM [inhibitor, full curve]",–
c1ccc(OCCn2c(-c3ccco3)nc3ccccc32)cc1,–,inactive: -23.7%
CCOc1ccc(NC(=O)Nc2ccc3nsnc3c2)cc1,–,inactive: 15.5%
CCCNCc1cc(Br)ccc1OCC(=O)NCCc1ccccc1,"inconclusive: 17.8 µM [inhibitor, partial curve, poor fit]",–
CC(=O)Nc1ccc(C=NNc2ccc([N+](=O)[O-])cn2)cc1,"inconclusive: 3.55 µM [activator, partial curve, poor fit]",–
O=[N+]([O-])c1ccc(CNc2cccc(Cl)c2)s1,"inconclusive: 35.5 µM [inhibitor, single point]",–
N#C/C(C(=O)N1CCOCC1)=C1/SC=C(c2ccccc2)N1c1ccccc1,–,inactive: -4.72%
O=C(c1cc2c(s1)CCCC2)N1CCN(S(=O)(=O)c2ccccc2C(F)(F)F)CC1,–,inactive: -23.2%
S=c1[nH]nc(-c2cccs2)n1/N=C/c1cn(-c2ccccc2)nc1-c1cccs1,"inconclusive: 35.5 µM [inhibitor, single point]",–
CN(CC1CCOCC1)C(=O)CC1C(=O)NCCN1Cc1ccc(F)c(F)c1 (centres undefined),"inconclusive: 2.82 µM [inhibitor, single point]",–
